These are yes or no findings as the source states them, for the method shown. In cells and extracts the contact can be indirect. A yes stands for co-enrichment or nearness to the bait. Other partners may have been found.
Biological target: 3XFLAG-tagged full-length CFDP1 stably expressed in NIH3T3 cells (mouse) (UniProt O88271)
Experiment: affinity purification with mass spectrometry; MS analysis of proteins interacting with 3XFLAG-tagged CFDP1 in NIH3T3 cells

Sequences of proteins named here, by UniProt entry; tags and fusion partners are left off.
UniProt O88271: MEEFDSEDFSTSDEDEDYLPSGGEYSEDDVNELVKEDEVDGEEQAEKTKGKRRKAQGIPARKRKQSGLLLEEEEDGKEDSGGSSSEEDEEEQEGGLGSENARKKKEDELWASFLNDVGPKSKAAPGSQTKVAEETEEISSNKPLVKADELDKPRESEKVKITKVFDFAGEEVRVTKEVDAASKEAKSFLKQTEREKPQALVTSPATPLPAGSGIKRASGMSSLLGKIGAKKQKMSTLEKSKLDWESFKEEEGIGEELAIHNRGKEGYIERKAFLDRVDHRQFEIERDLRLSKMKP

B1: RCC1 (regulator of chromatin condensation I protein), endogenous in NIH3T3 cells (protein, UniProt Q8VE37 1-421)
chain: MPPKRIAKRRSPPEDAIPKSKKVKVSHRSHNTEPGLVLTLGQGDVGQLGLGESVLERKKPALVPLLQDVVQAEAGGMHTVCLSQSGQVYSFGCNDEGALGRDTSVEGSEMVPGKVELQEKVVQVSAGDSHTAALTEDGRVFLWGSFRDNNGVIGLLEPMKKSMVPVQVQLDAPVVKVASGNDHLVMLTNDGDLYTLGCGEQGQLGRVPELFANRGGRQGLGRLLVPRCVLLKSRGTRGRVRFQDAFCGAYFTFAISREGHVYGFGLSNYHQLGTPGTGSCFIPQNLTSFKNSTKSWVGFSGGQHHTVCMDSEGKAYSLGRAEYGRLGLGEGAEEKSIPTLISRLPVVSSVACGASVGYAVSKDGRVFAWGMGTNYQLGTGQDEDAWSPVEMTGKQLENRVVLTVSSGGQHTVLLVKDQAQS
  binding: binds
